Among the data in publication doi:10.1101/2022.12.01.518768 are binding values, retold here.

This test concerns the target LhcB2-GFP (~55 kDa) (Arabidopsis thaliana) (UniProt Q9S7J7). Description: native gel or EMSA.

Results are given in words; binding and its absence hold for the method and conditions named.

With “LhcB2-GFP (~55 kDa) (from UniProt Q9S7J7 38-265)”, the binding entry is reported as “no binding”.
